Results published in the supplement of paper PMC12823440, “Inhibitors supercharge kinase turnover through native proteolytic circuits” (Nature, 2025).
Where a name gives a salt, the structure may show the parent alone. Some of the results follow. The calls rarely recur for the same compound in another form.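 Kinases were expressed as nanoluciferase fusions in K562 cells and luminescence was read every 4 h between 2 and 18 h as percent of control, DMSO set to 100% and a positive control to 0%. A time point counts as decreased when the signal drops significantly (2 sigma). The hit call is the authors' own, does not follow from the count of time points alone, and its rule is not shown.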

Amino acid sequences for entries named in this document (tags omitted). A change or cut given only in a name is not applied to a line headed by its entry.
UniProt P07949, whole entry, looked up: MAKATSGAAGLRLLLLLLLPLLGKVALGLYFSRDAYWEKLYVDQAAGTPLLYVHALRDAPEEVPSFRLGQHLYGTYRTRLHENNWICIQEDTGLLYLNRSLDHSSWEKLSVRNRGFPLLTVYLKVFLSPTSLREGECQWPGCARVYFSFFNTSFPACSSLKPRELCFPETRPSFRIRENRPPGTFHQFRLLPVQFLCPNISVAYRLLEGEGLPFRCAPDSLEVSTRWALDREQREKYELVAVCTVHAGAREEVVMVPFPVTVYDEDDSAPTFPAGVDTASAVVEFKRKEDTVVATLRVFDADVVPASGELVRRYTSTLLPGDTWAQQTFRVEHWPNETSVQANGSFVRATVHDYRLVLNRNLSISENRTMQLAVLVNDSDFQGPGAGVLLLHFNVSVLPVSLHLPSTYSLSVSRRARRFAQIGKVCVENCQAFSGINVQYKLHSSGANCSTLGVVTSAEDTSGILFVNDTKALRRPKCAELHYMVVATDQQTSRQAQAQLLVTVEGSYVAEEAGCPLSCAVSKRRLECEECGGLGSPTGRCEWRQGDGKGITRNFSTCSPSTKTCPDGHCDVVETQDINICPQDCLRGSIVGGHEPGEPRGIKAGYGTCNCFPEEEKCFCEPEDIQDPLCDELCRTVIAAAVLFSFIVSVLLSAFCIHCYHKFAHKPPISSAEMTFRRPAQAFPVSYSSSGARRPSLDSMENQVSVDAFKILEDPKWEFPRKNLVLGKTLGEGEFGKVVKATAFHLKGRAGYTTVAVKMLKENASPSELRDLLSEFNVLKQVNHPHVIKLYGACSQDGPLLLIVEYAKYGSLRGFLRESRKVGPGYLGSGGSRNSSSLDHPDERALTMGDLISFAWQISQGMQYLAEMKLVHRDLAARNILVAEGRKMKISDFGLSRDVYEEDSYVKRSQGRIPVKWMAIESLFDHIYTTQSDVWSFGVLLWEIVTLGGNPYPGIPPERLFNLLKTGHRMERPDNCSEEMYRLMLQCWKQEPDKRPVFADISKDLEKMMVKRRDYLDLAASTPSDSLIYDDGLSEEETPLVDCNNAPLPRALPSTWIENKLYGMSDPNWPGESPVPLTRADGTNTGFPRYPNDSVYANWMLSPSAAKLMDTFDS
UniProt P07949, whole entry M918T, looked up: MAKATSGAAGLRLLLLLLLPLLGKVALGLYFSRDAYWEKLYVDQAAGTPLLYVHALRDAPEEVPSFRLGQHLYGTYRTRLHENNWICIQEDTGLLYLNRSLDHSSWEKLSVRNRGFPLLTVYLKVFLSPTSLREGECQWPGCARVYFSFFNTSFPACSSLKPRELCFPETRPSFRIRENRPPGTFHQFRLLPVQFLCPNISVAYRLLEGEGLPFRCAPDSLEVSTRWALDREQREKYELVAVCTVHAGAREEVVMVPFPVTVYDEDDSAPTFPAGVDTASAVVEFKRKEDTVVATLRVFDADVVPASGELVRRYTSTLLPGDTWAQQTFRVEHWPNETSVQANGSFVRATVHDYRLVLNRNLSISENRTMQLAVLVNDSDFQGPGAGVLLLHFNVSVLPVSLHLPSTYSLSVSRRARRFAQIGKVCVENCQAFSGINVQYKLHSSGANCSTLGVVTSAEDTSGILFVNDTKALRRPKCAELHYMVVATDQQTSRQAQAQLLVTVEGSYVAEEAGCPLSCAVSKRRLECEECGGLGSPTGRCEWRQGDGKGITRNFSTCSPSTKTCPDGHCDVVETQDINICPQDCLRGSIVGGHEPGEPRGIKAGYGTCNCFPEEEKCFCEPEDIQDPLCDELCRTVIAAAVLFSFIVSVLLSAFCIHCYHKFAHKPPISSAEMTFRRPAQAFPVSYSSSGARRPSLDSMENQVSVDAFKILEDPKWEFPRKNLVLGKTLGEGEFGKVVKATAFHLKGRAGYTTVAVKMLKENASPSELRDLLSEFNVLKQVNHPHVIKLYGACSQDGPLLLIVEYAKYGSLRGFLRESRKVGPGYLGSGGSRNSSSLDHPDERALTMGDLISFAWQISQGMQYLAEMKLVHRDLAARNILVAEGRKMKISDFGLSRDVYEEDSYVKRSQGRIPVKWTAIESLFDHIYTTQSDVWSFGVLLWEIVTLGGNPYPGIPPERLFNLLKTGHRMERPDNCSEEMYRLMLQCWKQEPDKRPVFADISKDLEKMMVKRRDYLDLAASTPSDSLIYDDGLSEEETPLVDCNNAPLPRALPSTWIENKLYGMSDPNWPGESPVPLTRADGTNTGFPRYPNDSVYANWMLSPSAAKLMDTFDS
UniProt Q9BRS2: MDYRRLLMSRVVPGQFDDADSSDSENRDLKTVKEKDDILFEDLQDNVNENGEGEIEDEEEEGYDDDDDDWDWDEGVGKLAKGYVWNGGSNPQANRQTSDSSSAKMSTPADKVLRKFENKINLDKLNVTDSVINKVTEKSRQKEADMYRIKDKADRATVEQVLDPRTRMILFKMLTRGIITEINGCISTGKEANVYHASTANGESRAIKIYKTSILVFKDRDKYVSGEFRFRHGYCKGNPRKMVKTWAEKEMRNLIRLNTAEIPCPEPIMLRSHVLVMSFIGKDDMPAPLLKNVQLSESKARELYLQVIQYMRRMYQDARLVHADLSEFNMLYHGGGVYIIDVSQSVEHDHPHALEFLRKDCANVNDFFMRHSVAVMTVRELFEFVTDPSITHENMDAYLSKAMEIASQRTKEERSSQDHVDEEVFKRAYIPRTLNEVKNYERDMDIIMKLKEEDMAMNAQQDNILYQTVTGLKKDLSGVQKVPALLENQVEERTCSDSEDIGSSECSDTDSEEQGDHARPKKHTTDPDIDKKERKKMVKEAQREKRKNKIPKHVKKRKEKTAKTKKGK
UniProt Q13546: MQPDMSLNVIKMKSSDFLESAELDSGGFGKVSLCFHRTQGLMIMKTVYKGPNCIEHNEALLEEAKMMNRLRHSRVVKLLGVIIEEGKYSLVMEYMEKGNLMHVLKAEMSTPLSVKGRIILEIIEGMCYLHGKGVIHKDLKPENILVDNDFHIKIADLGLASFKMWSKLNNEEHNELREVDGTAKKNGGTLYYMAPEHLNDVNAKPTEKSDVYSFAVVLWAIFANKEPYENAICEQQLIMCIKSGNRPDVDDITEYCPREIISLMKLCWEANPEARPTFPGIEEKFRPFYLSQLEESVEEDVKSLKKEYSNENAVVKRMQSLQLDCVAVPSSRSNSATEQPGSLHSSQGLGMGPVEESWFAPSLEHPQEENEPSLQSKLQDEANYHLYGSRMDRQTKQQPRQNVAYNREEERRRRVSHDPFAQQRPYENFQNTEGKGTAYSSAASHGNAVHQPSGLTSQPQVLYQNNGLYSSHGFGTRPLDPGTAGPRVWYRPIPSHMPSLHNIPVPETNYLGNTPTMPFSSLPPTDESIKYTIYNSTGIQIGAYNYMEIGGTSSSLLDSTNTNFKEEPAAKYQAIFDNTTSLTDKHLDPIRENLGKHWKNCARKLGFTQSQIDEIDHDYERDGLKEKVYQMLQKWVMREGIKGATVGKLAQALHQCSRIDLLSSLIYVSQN
UniProt Q01974, whole entry: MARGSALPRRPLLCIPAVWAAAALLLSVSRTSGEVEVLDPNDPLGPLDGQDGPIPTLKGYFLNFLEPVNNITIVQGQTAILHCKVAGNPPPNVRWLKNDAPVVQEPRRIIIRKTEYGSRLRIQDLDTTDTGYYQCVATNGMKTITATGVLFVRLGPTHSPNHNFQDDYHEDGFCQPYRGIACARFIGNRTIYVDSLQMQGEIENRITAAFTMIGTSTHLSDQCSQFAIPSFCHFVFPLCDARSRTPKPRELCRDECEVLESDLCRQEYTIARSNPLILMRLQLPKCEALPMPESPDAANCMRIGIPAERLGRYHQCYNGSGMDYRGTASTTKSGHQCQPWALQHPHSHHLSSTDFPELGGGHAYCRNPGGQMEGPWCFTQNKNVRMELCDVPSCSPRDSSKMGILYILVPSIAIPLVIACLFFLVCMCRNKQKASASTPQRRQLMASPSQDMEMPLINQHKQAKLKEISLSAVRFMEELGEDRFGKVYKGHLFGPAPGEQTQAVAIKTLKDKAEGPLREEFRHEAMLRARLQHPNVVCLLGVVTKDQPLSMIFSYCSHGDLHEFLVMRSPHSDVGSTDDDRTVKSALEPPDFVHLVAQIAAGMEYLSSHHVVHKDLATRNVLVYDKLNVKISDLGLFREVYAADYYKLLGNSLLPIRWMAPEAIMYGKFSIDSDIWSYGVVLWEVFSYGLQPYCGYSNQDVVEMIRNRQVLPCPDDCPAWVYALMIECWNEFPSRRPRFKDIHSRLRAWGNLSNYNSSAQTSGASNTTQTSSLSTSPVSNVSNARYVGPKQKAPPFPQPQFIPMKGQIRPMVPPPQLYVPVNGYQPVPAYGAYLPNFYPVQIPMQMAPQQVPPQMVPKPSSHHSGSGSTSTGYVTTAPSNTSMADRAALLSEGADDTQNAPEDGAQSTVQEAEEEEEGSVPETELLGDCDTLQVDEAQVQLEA
UniProt Q15418, whole entry: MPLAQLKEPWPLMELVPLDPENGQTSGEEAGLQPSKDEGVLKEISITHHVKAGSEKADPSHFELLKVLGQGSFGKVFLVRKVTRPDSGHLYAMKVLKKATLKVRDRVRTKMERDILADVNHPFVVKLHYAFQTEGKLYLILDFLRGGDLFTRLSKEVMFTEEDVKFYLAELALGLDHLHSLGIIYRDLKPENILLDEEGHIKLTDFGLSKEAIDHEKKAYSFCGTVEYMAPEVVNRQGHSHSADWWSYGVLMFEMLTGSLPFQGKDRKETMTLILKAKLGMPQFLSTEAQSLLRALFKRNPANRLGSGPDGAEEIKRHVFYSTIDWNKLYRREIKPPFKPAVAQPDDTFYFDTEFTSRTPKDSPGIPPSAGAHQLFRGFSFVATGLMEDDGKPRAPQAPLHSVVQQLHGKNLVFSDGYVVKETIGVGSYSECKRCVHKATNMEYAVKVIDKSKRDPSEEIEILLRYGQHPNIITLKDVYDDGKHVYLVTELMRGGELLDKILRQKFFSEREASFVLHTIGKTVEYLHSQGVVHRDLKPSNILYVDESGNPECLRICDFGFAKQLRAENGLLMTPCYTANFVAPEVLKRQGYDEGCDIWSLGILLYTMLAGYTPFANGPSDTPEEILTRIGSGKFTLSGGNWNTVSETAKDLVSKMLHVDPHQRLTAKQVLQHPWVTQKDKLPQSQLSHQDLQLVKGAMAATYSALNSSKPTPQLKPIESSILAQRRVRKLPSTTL
UniProt Q9NYA1, whole entry: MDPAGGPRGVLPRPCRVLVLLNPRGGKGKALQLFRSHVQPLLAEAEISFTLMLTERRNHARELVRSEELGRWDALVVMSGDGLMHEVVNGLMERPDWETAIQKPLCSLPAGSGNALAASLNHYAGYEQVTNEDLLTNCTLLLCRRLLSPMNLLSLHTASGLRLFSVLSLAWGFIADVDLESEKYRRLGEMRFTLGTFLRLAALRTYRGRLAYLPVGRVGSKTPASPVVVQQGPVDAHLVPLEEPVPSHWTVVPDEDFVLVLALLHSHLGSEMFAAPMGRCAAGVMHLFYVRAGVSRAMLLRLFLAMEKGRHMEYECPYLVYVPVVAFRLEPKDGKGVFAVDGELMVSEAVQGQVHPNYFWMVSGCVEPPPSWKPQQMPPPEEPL
UniProt Q9Y6E0: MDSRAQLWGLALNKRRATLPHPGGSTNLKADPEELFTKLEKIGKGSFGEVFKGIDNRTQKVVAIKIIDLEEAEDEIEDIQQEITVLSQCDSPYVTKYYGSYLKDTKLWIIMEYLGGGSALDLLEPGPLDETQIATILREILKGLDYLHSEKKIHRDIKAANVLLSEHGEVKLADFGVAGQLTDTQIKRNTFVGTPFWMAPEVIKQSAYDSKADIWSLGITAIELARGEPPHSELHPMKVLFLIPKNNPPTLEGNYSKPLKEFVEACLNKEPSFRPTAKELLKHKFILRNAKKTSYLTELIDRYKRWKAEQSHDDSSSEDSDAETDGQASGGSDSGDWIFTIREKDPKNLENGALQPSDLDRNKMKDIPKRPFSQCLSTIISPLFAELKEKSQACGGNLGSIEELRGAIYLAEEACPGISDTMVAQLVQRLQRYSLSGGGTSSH

Assays:
Experiment in all cases: kinase-Nluc reporter destabilization hit call (1 = scored as downregulated) (binary); higher = compound decreases kinase abundance
Settings in all cases: K562; 2-18 h
RET = RET (UniProt P07949)
[1] = target: RET_M918T (clone: RET_mut) (UniProt P07949)
RIOK1 = RIOK1 (UniProt Q9BRS2)
RIPK1 = RIPK1 (UniProt Q13546)
RIPK2 = RIPK2 (UniProt O43353)
ROR2 = ROR2 (UniProt Q01974)
RPS6KA1 = RPS6KA1 (UniProt Q15418)
SPHK1 = SPHK1 (UniProt Q9NYA1)
SRC = SRC (UniProt P12931)
STK24 = STK24 (UniProt Q9Y6E0)

Measured: kinase-Nluc reporter destabilization hit call

Cn1cc(-c2c[nH]c3ncnc(N4CCOCC4)c23)cc1C#N (10 µM)
inactive: RET 0 | [1] 0 | RIOK1 = 0 | RIPK1 = 0 | RIPK2 = 0 | ROR2 = 0 | RPS6KA1 = 0 | SPHK1 = 0 | SRC 0 | STK24 = 0

Cc1ccc(-c2csc3ncnc(SCCC(=O)O)c23)cc1 (10 µM)
inactive: RET 0 | [1] 0 | RIOK1 = 0 | RIPK1 = 0 | RIPK2 = 0 | ROR2 = 0 | RPS6KA1 = 0 | SPHK1 = 0 | SRC 0 | STK24 = 0

C#Cc1cccc(Nc2ncnc3cc(OC)c(OCCCCCCC(=O)NO)cc23)c1 (2.5 µM)
inactive: RET 0 | [1] 0 | RIOK1 = 0 | RIPK1 = 0 | RIPK2 = 0 | ROR2 = 0 | RPS6KA1 = 0 | SPHK1 = 0 | SRC 0 | STK24 = 0

CCCCCCCC/C=C\CCCCCCCCCCCC(=O)O [Erucic acid] (10 µM)
inactive: RET 0 | [1] 0 | RIOK1 = 0 | RIPK1 = 0 | RIPK2 = 0 | ROR2 = 0 | RPS6KA1 = 0 | SPHK1 = 0 | SRC 0 | STK24 = 0

NC(=O)c1cnc2[nH]ccc2c1N[C@@H]1[C@@H]2CC3C[C@H]1C[C@@](O)(C3)C2 [Peficitinib] (10 µM)
inactive: RET 0 | [1] 0 | RIOK1 = 0 | RIPK1 = 0 | RIPK2 = 0 | ROR2 = 0 | RPS6KA1 = 0 | SPHK1 = 0 | SRC 0 | STK24 = 0

O=C1NC(=Nc2c(Cl)cccc2Cl)S/C1=C\c1ccc2nccnc2c1 (2.5 µM)
inactive: RET 0 | [1] 0 | RIOK1 = 0 | RIPK1 = 0 | RIPK2 = 0 | ROR2 = 0 | RPS6KA1 = 0 | SPHK1 = 0 | SRC 0 | STK24 = 0

COc1nn(C)cc1Nc1nccc(-c2c[nH]c3c(NC(=O)[C@@H](C)N4CCN(C)CC4)cccc23)n1 (10 µM)
inactive: RET 0 | [1] 0 | RIOK1 = 0 | RIPK1 = 0 | RIPK2 = 0 | ROR2 = 0 | RPS6KA1 = 0 | SPHK1 = 0 | SRC 0 | STK24 = 0

CN(c1ccc(NC(=O)Nc2ccc(OC(F)(F)F)cc2)cc1)c1ccnc(Nc2cccc(S(N)(=O)=O)c2)n1 (2.5 µM)
inactive: RET 0 | [1] 0 | RIOK1 = 0 | RIPK1 = 0 | RIPK2 = 0 | ROR2 = 0 | RPS6KA1 = 0 | SPHK1 = 0 | SRC 0 | STK24 = 0

CN(C)S(=O)(=O)c1ccc2c(c1)/C(=C/c1cc3c([nH]1)CCCC3)C(=O)N2 (2.5 µM)
inactive: RET 0 | [1] 0 | RIOK1 = 0 | RIPK1 = 0 | RIPK2 = 0 | ROR2 = 0 | RPS6KA1 = 0 | SPHK1 = 0 | SRC 0 | STK24 = 0

CNC(=O)c1cc2c(Oc3ccc(NC(=S)NC(=O)Cc4ccccc4)cc3F)ccnc2cc1OC [TAS-115 mesylate] (10 µM)
inactive: RET 0 | [1] 0 | RIOK1 = 0 | RIPK1 = 0 | RIPK2 = 0 | ROR2 = 0 | RPS6KA1 = 0 | SPHK1 = 0 | SRC 0 | STK24 = 0

Gathered by group, the compounds so far with an NH in an aromatic ring (4)
Cn1cc(-c2c[nH]c3ncnc(N4CCOCC4)c23)cc1C#N (10 µM)
inactive: RET 0 | [1] 0 | RIOK1 = 0 | RIPK1 = 0 | RIPK2 = 0 | ROR2 = 0 | RPS6KA1 = 0 | SPHK1 = 0 | SRC 0 | STK24 = 0

NC(=O)c1cnc2[nH]ccc2c1N[C@@H]1[C@@H]2CC3C[C@H]1C[C@@](O)(C3)C2 [Peficitinib] (10 µM)
inactive: RET 0 | [1] 0 | RIOK1 = 0 | RIPK1 = 0 | RIPK2 = 0 | ROR2 = 0 | RPS6KA1 = 0 | SPHK1 = 0 | SRC 0 | STK24 = 0

COc1nn(C)cc1Nc1nccc(-c2c[nH]c3c(NC(=O)[C@@H](C)N4CCN(C)CC4)cccc23)n1 (10 µM)
inactive: RET 0 | [1] 0 | RIOK1 = 0 | RIPK1 = 0 | RIPK2 = 0 | ROR2 = 0 | RPS6KA1 = 0 | SPHK1 = 0 | SRC 0 | STK24 = 0

CN(C)S(=O)(=O)c1ccc2c(c1)/C(=C/c1cc3c([nH]1)CCCC3)C(=O)N2 (2.5 µM)
inactive: RET 0 | [1] 0 | RIOK1 = 0 | RIPK1 = 0 | RIPK2 = 0 | ROR2 = 0 | RPS6KA1 = 0 | SPHK1 = 0 | SRC 0 | STK24 = 0

(list continues)

COc1ccc(N=Nc2c(N)n[nH]c2N)cc1 (10 µM)
inactive: RET 0 | [1] 0 | RIOK1 = 0 | RIPK1 = 0 | RIPK2 = 0 | ROR2 = 0 | RPS6KA1 = 0 | SPHK1 = 0 | SRC 0 | STK24 = 0

Cn1cc(-c2cnc3cnn(S(=O)(=O)c4cnc5ccc(-c6cnn(C)c6)cn45)c3c2)cn1 [Glumetinib] (10 µM)
inactive: RET 0 | [1] 0 | RIOK1 = 0 | RIPK1 = 0 | RIPK2 = 0 | ROR2 = 0 | RPS6KA1 = 0 | SPHK1 = 0 | SRC 0 | STK24 = 0

Cc1cccc(-c2[nH]c(C(C)(C)C)nc2-c2ccc3nccnc3c2)n1 (10 µM)
inactive: RET 0 | [1] 0 | RIOK1 = 0 | RIPK1 = 0 | RIPK2 = 0 | ROR2 = 0 | RPS6KA1 = 0 | SPHK1 = 0 | SRC 0 | STK24 = 0

CC(C)c1cccc(C(C)C)c1N1C(=O)c2ccc(N)cc2C1=O (2.5 µM)
inactive: RET 0 | [1] 0 | RIOK1 = 0 | RIPK1 = 0 | RIPK2 = 0 | ROR2 = 0 | RPS6KA1 = 0 | SPHK1 = 0 | SRC 0 | STK24 = 0

COc1cc(N(C)CCN(C)C)c(N)cc1Nc1nccc(-c2cn(C)c3ccccc23)n1 [Mutated EGFR-IN-1] (10 µM)
inactive: RET 0 | [1] 0 | RIOK1 = 0 | RIPK1 = 0 | RIPK2 = 0 | ROR2 = 0 | RPS6KA1 = 0 | SPHK1 = 0 | SRC 0 | STK24 = 0

COc1ccc(/C=C/C(=O)C2(C(=O)/C=C/c3ccc(OC)c(OC)c3)CCCCC2)cc1OC (2.5 µM)
inactive: RET 0 | [1] 0 | RIOK1 = 0 | RIPK1 = 0 | RIPK2 = 0 | ROR2 = 0 | RPS6KA1 = 0 | SPHK1 = 0 | SRC 0 | STK24 = 0

O=[N+]([O-])c1ccc(Nc2nc(N3CCOCC3)nc(N3CCOCC3)n2)cc1 (10 µM)
inactive: RET 0 | [1] 0 | RIOK1 = 0 | RIPK1 = 0 | RIPK2 = 0 | ROR2 = 0 | RPS6KA1 = 0 | SPHK1 = 0 | SRC 0 | STK24 = 0

CC(=O)N1CCC(c2cc(-c3ccc(NC(=O)c4cccn(-c5ccc(F)cc5)c4=O)cc3F)c3c(N)ncnn23)CC1 (0.5 µM)
inactive: RET 0 | [1] 0 | RIOK1 = 0 | RIPK1 = 0 | RIPK2 = 0 | ROR2 = 0 | RPS6KA1 = 0 | SPHK1 = 0 | SRC 0 | STK24 = 0

CNc1cc(Nc2cccn(-c3ccccn3)c2=O)nn2c(C(=O)N[C@@H]3C[C@@H]3F)cnc12 (2.5 µM)
inactive: RET 0 | [1] 0 | RIOK1 = 0 | RIPK1 = 0 | RIPK2 = 0 | ROR2 = 0 | RPS6KA1 = 0 | SPHK1 = 0 | SRC 0 | STK24 = 0

CCc1ccc(OCC(=O)Nc2ccc(F)c([N+](=O)[O-])c2)cc1 (10 µM)
inactive: RET 0 | [1] 0 | RIOK1 = 0 | RIPK1 = 0 | RIPK2 = 0 | ROR2 = 0 | RPS6KA1 = 0 | SPHK1 = 0 | SRC 0 | STK24 = 0

Oc1cc(O)c2c(c1)OC1(c3ccc(O)c(O)c3)Oc3cc(O)c4c(c3C2C1O)OC(c1ccc(O)c(O)c1)C(O)C4 (stereo not given) [Procyanidin A1] (10 µM)
inactive: RET 0 | [1] 0 | RIOK1 = 0 | RIPK1 = 0 | RIPK2 = 0 | ROR2 = 0 | RPS6KA1 = 0 | SPHK1 = 0 | SRC 0 | STK24 = 0

Nc1nc(N)c2nc(-c3cccc(O)c3)cnc2n1 (10 µM)
inactive: RET 0 | [1] 0 | RIOK1 = 0 | RIPK1 = 0 | RIPK2 = 0 | ROR2 = 0 | RPS6KA1 = 0 | SPHK1 = 0 | SRC 0 | STK24 = 0

NC(=O)N1CCC(CC(=O)N2CCC([C@H]3c4ncc(Br)cc4CCc4cc(Cl)cc(Br)c43)CC2)CC1 [Lonafarnib] (2.5 µM)
inactive: RET 0 | [1] 0 | RIOK1 = 0 | RIPK1 = 0 | RIPK2 = 0 | ROR2 = 0 | RPS6KA1 = 0 | SPHK1 = 0 | SRC 0 | STK24 = 0

C=CC(=O)Nc1cc(-n2c(=O)ccc3cnc4ccc(-c5ccc(NS(C)(=O)=O)cc5)cc4c32)ccc1C (10 µM)
inactive: RET 0 | [1] 0 | RIOK1 = 0 | RIPK1 = 0 | RIPK2 = 0 | ROR2 = 0 | RPS6KA1 = 0 | SPHK1 = 0 | SRC 0 | STK24 = 0

Cc1ccc(NC(=O)c2ccnc(C(F)(F)F)c2)cc1-c1cc(OCCO)nc(N2CCOCC2)c1 (10 µM)
inactive: RET 0 | [1] 0 | RIOK1 = 0 | RIPK1 = 0 | RIPK2 = 0 | ROR2 = 0 | RPS6KA1 = 0 | SPHK1 = 0 | SRC 0 | STK24 = 0

C[C@@H]1CC(=O)c2c(ccc3c2C(=O)c2cccc(O)c2C3=O)C1 [Ochromycinone] (10 µM)
inactive: RET 0 | [1] 0 | RIOK1 = 0 | RIPK1 = 0 | RIPK2 = 0 | ROR2 = 0 | RPS6KA1 = 0 | SPHK1 = 0 | SRC 0 | STK24 = 0

CN1CC[C@@H](c2c(O)cc(O)c3c(=O)cc(-c4ccc(C(F)(F)F)cc4Cl)oc23)[C@@H]1CO [Voruciclib (hydrochloride)] (10 µM)
inactive: RET 0 | [1] 0 | RIOK1 = 0 | RIPK1 = 0 | RIPK2 = 0 | ROR2 = 0 | RPS6KA1 = 0 | SPHK1 = 0 | SRC 0 | STK24 = 0

CNC(=O)c1ccccc1Oc1nc(Nc2cc(OC)c(OC)c(OC)c2)ncc1Br (2.5 µM)
inactive: RET 0 | [1] 0 | RIOK1 = 0 | RIPK1 = 0 | RIPK2 = 0 | ROR2 = 0 | RPS6KA1 = 0 | SPHK1 = 0 | SRC 0 | STK24 = 0
